Measured values from paper PMC9731985.

Chains of the proteins cited; added tags and fusions are not shown.
UniProt O60260: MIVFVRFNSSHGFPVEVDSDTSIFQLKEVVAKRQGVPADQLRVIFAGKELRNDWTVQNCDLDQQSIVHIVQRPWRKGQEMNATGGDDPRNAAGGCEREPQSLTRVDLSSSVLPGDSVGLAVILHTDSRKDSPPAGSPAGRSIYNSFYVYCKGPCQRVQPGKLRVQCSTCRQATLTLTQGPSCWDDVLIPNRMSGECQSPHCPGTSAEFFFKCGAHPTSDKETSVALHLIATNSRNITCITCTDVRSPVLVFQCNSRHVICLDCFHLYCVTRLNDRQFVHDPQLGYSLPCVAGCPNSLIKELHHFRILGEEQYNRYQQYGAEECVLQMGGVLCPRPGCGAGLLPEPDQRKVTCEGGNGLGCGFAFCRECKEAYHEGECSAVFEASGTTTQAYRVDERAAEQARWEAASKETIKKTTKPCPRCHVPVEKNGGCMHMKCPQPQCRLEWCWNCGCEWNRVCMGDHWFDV

Biological target: FLAG-tagged Parkin (human) (UniProt O60260)
Test: affinity purification with mass spectrometry; FLAG-Parkin overexpressed in Hep3B cells, cultured under normoxia or hypoxia for 12 h, immunoprecipitated with the anti-FLAG antibody; the band indicated by the arrow analysed by LC-MS

Q: “heat shock cognate 71 kDa protein (Hsc70) (from UniProt P11142-1 1-646)” was tested. Which binding did it give?
A: binds

These are yes or no findings as the source states them, for the method shown. In cells and extracts the contact can be indirect. These calls come from enrichment with a bait or labelling near it, and not all partners need be listed.
